No constants are given. Whether binding was seen depends on the method and setting. Binding seen in cells or lysates may run through a third protein. Some results given as binding are weak or reduced against the parent protein; the word gives no strength. For some of these results: Where a sequence is shown, tags or fusion partners need not be part of it.
Tests used:
Experiment in all cases: co-IP; endogenous proteins in RAW264.7 cell extracts; IP with anti-HMGB1, anti-HDAC3 or anti-NF-κB p65 (CST, 1:500), IgG as parallel group, protein A/G-agarose, washed in PBS, Western blot; cells untreated, LPS (0.2 μg/ml), LPS plus 15 μM Chr; also after siNC or HDAC3 siRNA
[1] = molecular target: T1, histone deacetylase 3 (HDAC3) (mouse (endogenous in RAW264.7)) (UniProt O88895)
T1 sequence: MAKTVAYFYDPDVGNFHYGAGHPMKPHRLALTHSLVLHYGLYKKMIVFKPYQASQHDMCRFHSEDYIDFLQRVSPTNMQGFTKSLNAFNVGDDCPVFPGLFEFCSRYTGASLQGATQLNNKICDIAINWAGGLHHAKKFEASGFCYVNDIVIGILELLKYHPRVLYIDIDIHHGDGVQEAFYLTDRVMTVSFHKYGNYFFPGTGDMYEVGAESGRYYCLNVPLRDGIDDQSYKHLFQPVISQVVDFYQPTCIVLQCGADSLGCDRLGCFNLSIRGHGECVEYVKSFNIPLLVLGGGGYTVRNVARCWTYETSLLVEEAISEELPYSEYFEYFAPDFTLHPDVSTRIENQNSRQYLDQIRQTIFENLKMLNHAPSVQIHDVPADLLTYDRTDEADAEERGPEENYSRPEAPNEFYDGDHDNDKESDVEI

Chains of the proteins cited; added tags and fusions are not shown.
UniProt Q04207: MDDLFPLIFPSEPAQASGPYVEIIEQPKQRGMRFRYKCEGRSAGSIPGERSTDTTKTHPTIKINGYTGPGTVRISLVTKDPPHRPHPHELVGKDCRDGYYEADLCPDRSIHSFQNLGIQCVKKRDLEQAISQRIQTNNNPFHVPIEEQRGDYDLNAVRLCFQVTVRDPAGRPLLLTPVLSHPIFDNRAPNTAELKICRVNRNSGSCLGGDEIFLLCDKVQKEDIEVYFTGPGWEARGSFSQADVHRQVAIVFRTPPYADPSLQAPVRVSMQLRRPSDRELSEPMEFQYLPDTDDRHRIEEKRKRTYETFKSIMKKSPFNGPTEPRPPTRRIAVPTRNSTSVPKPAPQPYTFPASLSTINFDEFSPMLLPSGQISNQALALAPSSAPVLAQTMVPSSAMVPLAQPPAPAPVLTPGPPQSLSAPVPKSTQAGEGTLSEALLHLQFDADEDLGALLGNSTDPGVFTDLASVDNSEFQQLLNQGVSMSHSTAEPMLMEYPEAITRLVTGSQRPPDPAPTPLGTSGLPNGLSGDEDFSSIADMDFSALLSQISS
UniProt P63158: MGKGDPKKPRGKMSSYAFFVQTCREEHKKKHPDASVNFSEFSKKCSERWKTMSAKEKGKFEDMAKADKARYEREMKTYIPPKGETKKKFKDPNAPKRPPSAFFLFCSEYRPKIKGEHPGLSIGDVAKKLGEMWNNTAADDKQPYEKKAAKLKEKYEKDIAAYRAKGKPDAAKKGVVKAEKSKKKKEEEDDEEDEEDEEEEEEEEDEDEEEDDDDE

[2] = molecular target: nuclear transcription factor-kappa B p65 (NF-κB p65) (mouse (endogenous in RAW264.7)) (UniProt Q04207)
[3] = molecular target: high mobility group box 1 (HMGB1) protein (mouse (endogenous in RAW264.7)) (UniProt P63158)

| Substance | binding [1] | binding [2] | binding [3] |
| --- | --- | --- | --- |
| high mobility group box 1 (HMGB1) protein (from UniProt P63158 1-215) | binds | binds |  |
| nuclear transcription factor-kappa B p65 (NF-κB p65) (from UniProt Q04207 1-549) | binds |  | binds |
